PubChem BioAssay AID504774 – Drosophila RNAi Screening Center | 2011
Aim: 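Genes required for cells to withstand methyl methanesulphonate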 (primary screen). System: Drosophila Kc167 cells. Knock-down reagent: long dsRNA against Drosophila genes, about 0.25 µg dsRNA per well. Timing: about 6 days: 3 days knock-down, then 3 days with or without MMS. Conditions: methyl methanesulphonate 0.004% (w/v) for 3 days after knock-down. Detection: 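Viability in wells given MMS, read as ATP luminescence, normalised by quantiles plate by plate and averaged across replicates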. Direction: mean viability with MMS and viability with MMS: higher = more surviving cells after MMS.
The screen tested about 23,000 reagents; shown is a random part of those that have a named target and a result. 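Values are quantile-normalised luminescence on an arbitrary scale; higher means more cells surviving MMS.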 Names joined by + are all predicted targets of the reagent.

| target gene | dsRNA | mean viability with MMS | viability with MMS, replicate 1 | viability with MMS, replicate 2 |
| --- | --- | --- | --- | --- |
| CG17572 | DRSC02629 | 3.57e6 | 4.00e6 | 4.11e6 |
| Nep2 | DRSC12126 | 3.39e6 | 3.83e6 | 3.82e6 |
| Nep2 | DRSC21398 | 3.57e6 | 4.16e6 | 3.96e6 |
| Vti1b | DRSC16283 | 3.85e6 | 4.19e6 | 4.39e6 |
| Vti1b | DRSC16284 | 3.46e6 | 3.98e6 | 3.88e6 |
| Osi3 | DRSC12175 | 3.47e6 | 3.92e6 | 3.96e6 |
| Chro | DRSC11630 | 3.19e6 | 3.64e6 | 3.64e6 |
| CCAP | DRSC15674 | 3.52e6 | 4.02e6 | 3.96e6 |
| Dad1 | DRSC02263 | 3.44e6 | 3.82e6 | 3.95e6 |
| Mipp2 | DRSC18682 | 3.58e6 | 3.89e6 | 4.17e6 |
| CG5217 | DRSC15740 | 3.54e6 | 4.06e6 | 3.97e6 |
| CG14113 | DRSC10116 | 3.59e6 | 3.94e6 | 4.18e6 |
| Lamtor1 | DRSC10183 | 3.55e6 | 4.01e6 | 4.03e6 |
| CG13720 | DRSC08329 | 3.39e6 | 3.80e6 | 3.86e6 |
| FucTB | DRSC02745 | 3.63e6 | 4.09e6 | 4.15e6 |
| CG4438 | DRSC02746 | 3.88e6 | 4.17e6 | 4.66e6 |
| csul | DRSC07599 | 3.62e6 | 3.94e6 | 4.25e6 |
| Tm1 | DRSC13082 | 3.49e6 | 4.07e6 | 3.87e6 |
| Tm1 | DRSC13083 | 3.56e6 | 4.07e6 | 4.01e6 |
| Tm1 | DRSC16886 | 3.55e6 | 4.04e6 | 4.02e6 |
| CG17271 | DRSC15210 | 3.47e6 | 3.94e6 | 3.94e6 |
| CG17271 | DRSC22629 | 3.06e6 | 3.72e6 | 3.76e6 |
| CG17271 | DRSC22982 | 3.44e6 | 3.95e6 | 3.88e6 |
| CG10226 | DRSC09715 | 3.70e6 | 4.32e6 | 4.07e6 |
| Zfrp8 | DRSC04352 | 3.56e6 | 4.00e6 | 4.10e6 |
| Jon66Cii | DRSC10778 | 3.78e6 | 4.23e6 | 4.32e6 |
| wdb | DRSC14163 | 3.27e6 | 3.64e6 | 3.66e6 |
| CG6900 (retired record) | DRSC20018 | 3.59e6 | 4.09e6 | 4.03e6 |
| RhoGAP92B | DRSC14507 | 3.51e6 | 3.93e6 | 4.02e6 |
| RhoGAP92B | DRSC15637 | 3.36e6 | 3.81e6 | 3.85e6 |
| Cyp303a1 | DRSC03300 | 3.41e6 | 3.91e6 | 3.81e6 |
| Orc5 | DRSC03390 | 3.54e6 | 4.07e6 | 3.96e6 |
| cl | DRSC02118 | 3.54e6 | 4.01e6 | 4.00e6 |
| Dmtn | DRSC12513 | 3.37e6 | 3.80e6 | 3.82e6 |
| CG15478 | DRSC18057 | 3.35e6 | 3.81e6 | 3.79e6 |
| brun | DRSC02706 | 3.45e6 | 3.99e6 | 3.81e6 |
| CG15201 | DRSC19648 | 3.60e6 | 4.08e6 | 4.06e6 |
| CG10734 | DRSC05998 | 3.60e6 | 3.91e6 | 4.24e6 |
| Ir7b | DRSC18009 | 3.28e6 | 3.66e6 | 3.72e6 |
| Spps | DRSC15856 | 3.31e6 | 3.76e6 | 3.77e6 |
| Spps | DRSC23206 | 3.76e6 | 4.11e6 | 4.40e6 |
| CG4409 | DRSC06869 | 3.52e6 | 3.96e6 | 4.02e6 |
| Rap2l | DRSC04646 | 3.64e6 | 4.18e6 | 4.08e6 |
| HisCl1 | DRSC14945 | 3.64e6 | 4.14e6 | 4.14e6 |
| CG14647 | DRSC12233 | 3.57e6 | 4.07e6 | 4.02e6 |
| CG14647 | DRSC22497 | 3.37e6 | 3.90e6 | 3.87e6 |
| mrn | DRSC10913 | 3.38e6 | 3.88e6 | 3.75e6 |
| GCC88 | DRSC14264 | 3.67e6 | 4.17e6 | 4.06e6 |
| CG42457 (retired record) + cpo | DRSC13273 | 3.63e6 | 4.17e6 | 4.04e6 |
| CG42457 (retired record) + cpo | DRSC14503 | 2.95e6 | 3.62e6 | 3.59e6 |
| CG42457 (retired record) + cpo | DRSC15327 | 2.83e6 | 3.57e6 | 3.57e6 |
| CG42457 (retired record) + cpo | DRSC16926 | 3.11e6 | 3.63e6 | 3.66e6 |
| CG42457 (retired record) + cpo | DRSC23006 | 3.47e6 | 4.07e6 | 3.84e6 |
| CG3557 | DRSC00614 | 3.63e6 | 4.23e6 | 4.02e6 |
| CG33966 | DRSC08256 | 3.55e6 | 4.02e6 | 4.02e6 |
| Gp93 | DRSC15827 | 3.63e6 | 4.18e6 | 4.04e6 |
| Naglu | DRSC02267 | 3.41e6 | 3.87e6 | 3.74e6 |
| dgt6 | DRSC14424 | 3.57e6 | 4.02e6 | 4.07e6 |
| CG7600 | DRSC09681 | 3.60e6 | 4.03e6 | 4.13e6 |
| CNT1 | DRSC06082 | 3.56e6 | 4.04e6 | 4.03e6 |
| CG13814 (retired record) | DRSC10069 | 3.54e6 | 4.04e6 | 3.98e6 |
| CG7218 | DRSC16216 | 3.48e6 | 3.95e6 | 3.96e6 |
| Trp1 | DRSC03465 | 3.42e6 | 3.83e6 | 3.90e6 |
| Men | DRSC12924 | 3.54e6 | 3.91e6 | 4.13e6 |
| Men | DRSC16738 | 3.43e6 | 3.99e6 | 4.08e6 |
| Men | DRSC22694 | 3.55e6 | 4.08e6 | 3.94e6 |
| CG12084 | DRSC08247 | 3.68e6 | 4.20e6 | 4.15e6 |
| Tctp | DRSC15649 | 3.55e6 | 4.04e6 | 4.03e6 |
| wam | DRSC15171 | 3.56e6 | 4.07e6 | 4.00e6 |
| Sap30 | DRSC19916 | 3.54e6 | 4.09e6 | 3.96e6 |
| Rgk1 (retired record) | DRSC07343 | 3.61e6 | 4.14e6 | 4.03e6 |
| Rgk1 (retired record) | DRSC07344 | 2.79e6 | 3.50e6 | 3.50e6 |
| Cph | DRSC17507 | 3.61e6 | 4.08e6 | 4.08e6 |
| Cph | DRSC18434 | 3.37e6 | 3.87e6 | 3.77e6 |
| CG15743 | DRSC19709 | 3.70e6 | 4.21e6 | 4.11e6 |
| CG31875 | DRSC21975 | 3.53e6 | 3.94e6 | 4.06e6 |
| mirr | DRSC11369 | 3.50e6 | 4.08e6 | 3.84e6 |
| CG10874 | DRSC00297 | 3.61e6 | 3.90e6 | 4.32e6 |
| Pop5 | DRSC10074 | 3.45e6 | 3.88e6 | 3.90e6 |
| Ent3 | DRSC09822 | 3.44e6 | 3.82e6 | 4.00e6 |
| CG34200 | DRSC04804 | 3.70e6 | 4.22e6 | 4.20e6 |
| CG10435 | DRSC14246 | 3.52e6 | 4.01e6 | 3.96e6 |
| NUCB1 | DRSC22137 | 3.44e6 | 3.91e6 | 3.93e6 |
| CG14223 | DRSC19580 | 3.47e6 | 4.03e6 | 3.86e6 |
| CG42271 | DRSC19809 | 3.48e6 | 3.87e6 | 3.91e6 |
| CG42271 | DRSC22894 | 3.39e6 | 3.92e6 | 3.89e6 |
| CG17752 | DRSC15262 | 3.51e6 | 3.76e6 | 4.19e6 |

7 of these entries in another layout.
target gene	dsRNA	mean viability with MMS	viability with MMS, replicate 1	viability with MMS, replicate 2
CG14647	DRSC12233	3.57e6	4.07e6	4.02e6
CG14647	DRSC22497	3.37e6	3.90e6	3.87e6
mrn	DRSC10913	3.38e6	3.88e6	3.75e6
GCC88	DRSC14264	3.67e6	4.17e6	4.06e6
CG42457 (retired record) + cpo	DRSC13273	3.63e6	4.17e6	4.04e6
CG42457 (retired record) + cpo	DRSC14503	2.95e6	3.62e6	3.59e6
CG42457 (retired record) + cpo	DRSC15327	2.83e6	3.57e6	3.57e6
